Experimental data as given in doi:10.1101/542795.

Amino acid sequences for entries named in this document (tags omitted).
UniProt Q9VEN1: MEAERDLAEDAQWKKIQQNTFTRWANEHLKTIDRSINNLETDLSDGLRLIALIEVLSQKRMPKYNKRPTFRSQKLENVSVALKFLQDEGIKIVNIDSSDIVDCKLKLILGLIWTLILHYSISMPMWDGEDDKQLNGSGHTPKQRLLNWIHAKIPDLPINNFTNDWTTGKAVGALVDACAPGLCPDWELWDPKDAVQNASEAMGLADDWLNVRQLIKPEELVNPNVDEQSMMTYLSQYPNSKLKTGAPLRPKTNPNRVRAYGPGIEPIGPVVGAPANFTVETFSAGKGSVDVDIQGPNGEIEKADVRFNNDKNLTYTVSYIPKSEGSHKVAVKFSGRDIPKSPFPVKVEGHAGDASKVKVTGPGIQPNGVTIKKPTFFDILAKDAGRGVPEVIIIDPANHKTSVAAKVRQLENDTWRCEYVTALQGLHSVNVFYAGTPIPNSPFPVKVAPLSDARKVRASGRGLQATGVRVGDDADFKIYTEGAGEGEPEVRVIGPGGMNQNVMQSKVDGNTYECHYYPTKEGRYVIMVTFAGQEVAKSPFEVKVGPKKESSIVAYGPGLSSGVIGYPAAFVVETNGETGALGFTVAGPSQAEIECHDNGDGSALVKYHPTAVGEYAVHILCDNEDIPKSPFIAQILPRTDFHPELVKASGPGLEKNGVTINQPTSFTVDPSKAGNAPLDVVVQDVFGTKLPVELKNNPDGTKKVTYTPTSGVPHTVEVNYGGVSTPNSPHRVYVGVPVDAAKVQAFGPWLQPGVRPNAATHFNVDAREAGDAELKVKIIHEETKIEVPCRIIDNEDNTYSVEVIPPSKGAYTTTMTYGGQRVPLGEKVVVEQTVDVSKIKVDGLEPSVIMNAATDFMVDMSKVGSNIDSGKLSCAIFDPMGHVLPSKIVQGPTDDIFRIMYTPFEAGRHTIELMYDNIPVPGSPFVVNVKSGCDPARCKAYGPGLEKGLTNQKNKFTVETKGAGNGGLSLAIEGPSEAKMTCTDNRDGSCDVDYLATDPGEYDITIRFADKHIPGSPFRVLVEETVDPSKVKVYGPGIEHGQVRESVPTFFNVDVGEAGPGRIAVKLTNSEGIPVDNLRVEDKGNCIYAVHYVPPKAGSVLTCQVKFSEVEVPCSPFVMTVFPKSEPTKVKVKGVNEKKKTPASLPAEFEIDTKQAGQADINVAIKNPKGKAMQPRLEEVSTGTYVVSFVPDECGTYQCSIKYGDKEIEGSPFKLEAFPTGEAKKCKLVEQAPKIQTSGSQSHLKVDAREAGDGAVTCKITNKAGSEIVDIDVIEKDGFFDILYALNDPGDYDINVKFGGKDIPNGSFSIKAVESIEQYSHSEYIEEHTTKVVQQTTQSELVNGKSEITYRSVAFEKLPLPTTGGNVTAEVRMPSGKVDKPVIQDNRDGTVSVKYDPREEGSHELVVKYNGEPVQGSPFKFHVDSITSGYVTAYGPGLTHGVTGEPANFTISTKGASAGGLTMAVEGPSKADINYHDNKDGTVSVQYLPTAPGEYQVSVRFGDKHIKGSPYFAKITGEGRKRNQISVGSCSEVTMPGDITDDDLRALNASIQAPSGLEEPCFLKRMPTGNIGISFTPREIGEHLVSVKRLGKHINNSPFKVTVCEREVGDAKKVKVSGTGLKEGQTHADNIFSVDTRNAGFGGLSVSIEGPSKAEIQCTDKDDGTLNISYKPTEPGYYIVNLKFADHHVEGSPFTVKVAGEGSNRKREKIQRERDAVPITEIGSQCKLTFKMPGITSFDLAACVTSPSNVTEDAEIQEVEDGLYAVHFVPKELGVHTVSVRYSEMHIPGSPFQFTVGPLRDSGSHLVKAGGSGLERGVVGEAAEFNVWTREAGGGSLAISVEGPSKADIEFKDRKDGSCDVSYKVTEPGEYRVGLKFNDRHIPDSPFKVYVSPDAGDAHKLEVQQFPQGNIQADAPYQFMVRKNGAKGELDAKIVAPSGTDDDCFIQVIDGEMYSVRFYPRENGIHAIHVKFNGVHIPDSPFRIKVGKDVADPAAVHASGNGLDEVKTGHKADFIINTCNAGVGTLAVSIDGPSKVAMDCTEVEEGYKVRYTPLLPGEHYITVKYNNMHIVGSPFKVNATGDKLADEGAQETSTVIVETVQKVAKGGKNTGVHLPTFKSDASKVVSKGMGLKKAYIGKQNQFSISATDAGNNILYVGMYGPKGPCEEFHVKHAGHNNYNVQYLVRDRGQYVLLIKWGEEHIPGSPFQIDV

T1: HtsRC::V5::APEX1 (Drosophila melanogaster) (UniProt Q02645)
T1 sequence: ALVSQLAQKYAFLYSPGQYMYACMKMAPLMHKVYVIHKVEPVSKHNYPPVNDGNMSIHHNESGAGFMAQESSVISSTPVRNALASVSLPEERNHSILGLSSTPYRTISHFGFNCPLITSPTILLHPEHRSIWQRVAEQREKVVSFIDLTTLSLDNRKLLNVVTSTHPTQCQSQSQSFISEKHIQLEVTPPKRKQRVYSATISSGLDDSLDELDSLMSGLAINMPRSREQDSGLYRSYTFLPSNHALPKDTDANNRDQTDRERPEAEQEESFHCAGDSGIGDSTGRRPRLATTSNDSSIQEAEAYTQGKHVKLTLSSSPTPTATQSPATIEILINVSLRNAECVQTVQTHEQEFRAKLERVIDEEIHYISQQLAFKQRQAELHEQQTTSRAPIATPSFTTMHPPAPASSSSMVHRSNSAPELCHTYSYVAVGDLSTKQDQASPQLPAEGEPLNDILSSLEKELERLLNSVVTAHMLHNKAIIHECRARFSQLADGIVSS


Experiments:
Test in all cases: proximity labelling
[1] = molecular target: T1, HtsRC::V5::APEX1 (Drosophila melanogaster)
[2] = molecular target: APEX2::V5::Kelch (Drosophila melanogaster) (UniProt Q04652)
[3] = molecular target: T1, HtsRC::V5::APEX1 (Drosophila melanogaster); remark: listed apart in the source

Row | Molecule | binding [1] | binding [2] | binding [3]
1 | Filamin (from UniProt Q9VEN1 1-2210) | – | no binding | –
2 | CG9336 (protein, UniProt Q9VII1 24-125) IKCYQCESLTMPKCGLKFEADETLLLDCSRIGPPRYLQNFFPLRNATGCMKKTLESVAGHPQIVRSCYFGDINNIQAGCQSDPSMPFVKQLGCDVCTKDECN | – | binds | –

Next, values leading:

Row | binding [1] | binding [2] | binding [3] | Molecule
3 | binds | – | – | Msp300 (from UniProt M9MRD1 1-12345)
4 | binds | – | binds | HtsRC (protein, UniProt Q02645 659-1156) ALVSQLAQKYAFLYSPGQYMYACMKMAPLMHKVYVIHKVEPVSKHNYPPVNDGNMSIHHNESGAGFMAQESSVISSTPVRNALASVSLPEERNHSILGLSSTPYRTISHFGFNCPLITSPTILLHPEHRSIWQRVAEQREKVVSFIDLTTLSLDNRKLLNVVTSTHPTQCQSQSQSFISEKHIQLEVTPPKRKQRVYSATISSGLDDSLDELDSLMSGLAINMPRSREQDSGLYRSYTFLPSNHALPKDTDANNRDQTDRERPEAEQEESFHCAGDSGIGDSTGRRPRLATTSNDSSIQEAEAYTQGKHVKLTLSSSPTPTATQSPATIEILINVSLRNAECVQTVQTHEQEFRAKLERVIDEEIHYISQQLAFKQRQAELHEQQTTSRAPIATPSFTTMHPPAPASSSSMVHRSNSAPELCHTYSYVAVGDLSTKQDQASPQLPAEGEPLNDILSSLEKELERLLNSVVTAHMLHNKAIIHECRARFSQLADGIVSS
5 | – | – | binds | HtsRC::V5::APEX1 (protein, UniProt Q02645 659-1156) ALVSQLAQKYAFLYSPGQYMYACMKMAPLMHKVYVIHKVEPVSKHNYPPVNDGNMSIHHNESGAGFMAQESSVISSTPVRNALASVSLPEERNHSILGLSSTPYRTISHFGFNCPLITSPTILLHPEHRSIWQRVAEQREKVVSFIDLTTLSLDNRKLLNVVTSTHPTQCQSQSQSFISEKHIQLEVTPPKRKQRVYSATISSGLDDSLDELDSLMSGLAINMPRSREQDSGLYRSYTFLPSNHALPKDTDANNRDQTDRERPEAEQEESFHCAGDSGIGDSTGRRPRLATTSNDSSIQEAEAYTQGKHVKLTLSSSPTPTATQSPATIEILINVSLRNAECVQTVQTHEQEFRAKLERVIDEEIHYISQQLAFKQRQAELHEQQTTSRAPIATPSFTTMHPPAPASSSSMVHRSNSAPELCHTYSYVAVGDLSTKQDQASPQLPAEGEPLNDILSSLEKELERLLNSVVTAHMLHNKAIIHECRARFSQLADGIVSS

Read-outs that look alike come from different tables or passages of the source. These are yes or no findings as the source states them, for the method shown. In cells and extracts the contact can be indirect. Here binding means that the protein was enriched with, or labelled near, the bait; the list need not be complete. For part of these data: A no says only that the protein was not detected with the bait. For part of these data: Sequences can lack the tags named with a protein.
